Measurements reported in patent US20110257102A1 (CASE WESTERN RESERVE UNIVERSITY, published 2011).
These are yes or no findings as the source states them, for the method shown. Some entries that bind do so weakly or less than the wild type.

Key:
[1] = biological target: GST-tagged FLNa domains 15-16 (UniProt P21333); assay: in vitro pull-down assays, immunoblots
[2] = biological target: GST-tagged FLNa domains 15-16 (UniProt P21333); assay: in vitro pull-down with mAb 8H4 and protein G beads, anti-GST immunoblot

For “recombinant pro-PrP^23-253 (from UniProt P04156 23-253)”, the binding [1] was “binds” and the binding [2] was “binds”.
